Test results from article PMC4476799, “Englerin A Agonizes the TRPC4/C5 Cation Channels to Inhibit Tumor Cell Line Proliferation” (PLoS ONE, 2015).
This continues a long series; more values of the same kind are listed elsewhere.

Tested on: cancer cell lines from the cancer cell line encyclopedia (CCLE)
Experiment: Cell line profiling (CLiP) proliferation experiment
Assay type: cell-based
Set-up: ACTIVITY_AREA: scale not given here; AMAX: unit not given here
Experimental: Compound profiling experiment and data analysis was performed as previously described. Data was imported and plotted using the Tibco Spotfire DXP application. Lines were categorized as sensitive, intermediate and refractory as follows: Amax<-40 & Inflection Point <2 ~ Sensitive, Amax>-20 & Inflection Point >10 ~ Refractory, all else were called Intermediate. Cancer Cell line HG-U133 Plus 2 data was processed and normalized as described. […] Five sets of refractory cell lines were generated from the pool of refractory cell lines trying to match the lineage composition of the set of sensitive cell lines. The limma package was used as previously described to perform the statistical comparison.

[1] = KYO-1 (haematopoietic_and_lymphoid_tissue)

For `CC(C)[C@@]12C[C@@H](O)[C@@](C)(O1)[C@@H]1CC[C@@H](C)[C@H]1[C@@H]2OC(=O)/C=C/c1ccccc1` [Englerin B], the ACTIVITY_AREA (KO52) was 16.9, the AMAX (KO52) was -64.86 and the RESPONSE (KO52) was “INTERMEDIATE”. The ACTIVITY_AREA (KO52 cells) was 16.9, the AMAX (KO52 cells) was -64.86 and the RESPONSE (KO52 cells) was “INTERMEDIATE”. The ACTIVITY_AREA (KP-1NL) was 50, the AMAX (KP-1NL) was -47.73 and the RESPONSE (KP-1NL) was “INTERMEDIATE”. For the same compound, the ACTIVITY_AREA (KP-1NL (pancreas)) was 50, the AMAX (KP-1NL (pancreas)) was -47.73 and the RESPONSE (KP-1NL (pancreas)) was “INTERMEDIATE”. The ACTIVITY_AREA (KP-N-SI9s) was 39.08, the AMAX (KP-N-SI9s) was -59.99 and the RESPONSE (KP-N-SI9s) was “INTERMEDIATE”. The ACTIVITY_AREA (KP-N-YN) was 7.56, the AMAX (KP-N-YN) was 5.57 and the RESPONSE (KP-N-YN) was “REFRACTORY”. The ACTIVITY_AREA (KP-N-YN (autonomic_ganglia)) was 7.56, the AMAX (KP-N-YN (autonomic_ganglia)) was 5.57 and the RESPONSE (KP-N-YN (autonomic_ganglia)) was “REFRACTORY”. The ACTIVITY_AREA (KPL-1) was 54.67, the RESPONSE (KPL-1) was “INTERMEDIATE” and the ACTIVITY_AREA (KPL-1 (breast)) was 54.67. The AMAX (KPL-1 (breast)) was -60.19, the RESPONSE (KPL-1 (breast)) was “INTERMEDIATE” and the ACTIVITY_AREA (KS-1) was 91.4. The AMAX (KS-1) was -50.57, the RESPONSE (KS-1) was “INTERMEDIATE” and the ACTIVITY_AREA (KS-1 (central_nervous_system)) was 91.4. The AMAX (KS-1 (central_nervous_system)) was -50.57, the RESPONSE (KS-1 (central_nervous_system)) was “INTERMEDIATE” and the ACTIVITY_AREA (KU812) was 70.55. The AMAX (KU812) was -93.11, the RESPONSE (KU812) was “INTERMEDIATE” and the ACTIVITY_AREA (KU812 cells) was 70.55. For the same compound, the AMAX (KU812 cells) was -93.11, the RESPONSE (KU812 cells) was “INTERMEDIATE” and the ACTIVITY_AREA (KURAMOCHI (ovary)) was 41.47. The AMAX (KURAMOCHI (ovary)) was -57.84, the RESPONSE (KURAMOCHI (ovary)) was “INTERMEDIATE” and the ACTIVITY_AREA (KYM-1 (soft_tissue)) was 74.89. The AMAX (KYM-1 (soft_tissue)) was -73.57, the RESPONSE (KYM-1 (soft_tissue)) was “INTERMEDIATE” and the ACTIVITY_AREA (KYM-1 cells) was 74.89. For the same compound, the AMAX (KYM-1 cells) was -73.57, the RESPONSE (KYM-1 cells) was “INTERMEDIATE” and the ACTIVITY_AREA [1] was 32.54. The AMAX [1] was -58.34, the RESPONSE [1] was “INTERMEDIATE” and the ACTIVITY_AREA (KYO-1 cells) was 32.54. For the same compound, the AMAX (KYO-1 cells) was -58.34, the RESPONSE (KYO-1 cells) was “INTERMEDIATE” and the ACTIVITY_AREA (KYSE-30 (oesophagus)) was 9.52. For the same compound, the AMAX (KYSE-30 (oesophagus)) was -43, the RESPONSE (KYSE-30 (oesophagus)) was “INTERMEDIATE” and the ACTIVITY_AREA (KYSE-70 (oesophagus)) was 35.67. The AMAX (KYSE-70 (oesophagus)) was -51.81, the RESPONSE (KYSE-70 (oesophagus)) was “INTERMEDIATE” and the ACTIVITY_AREA (KYSE-150 (oesophagus)) was 32.32. For the same compound, the AMAX (KYSE-150 (oesophagus)) was -38.06, the RESPONSE (KYSE-150 (oesophagus)) was “INTERMEDIATE” and the ACTIVITY_AREA (KYSE-270 (oesophagus)) was 78.27. For the same compound, the AMAX (KYSE-270 (oesophagus)) was -38.17, the RESPONSE (KYSE-270 (oesophagus)) was “INTERMEDIATE” and the ACTIVITY_AREA (KYSE-410 (oesophagus)) was 61.52. For the same compound, the AMAX (KYSE-410 (oesophagus)) was -56.07, the RESPONSE (KYSE-410 (oesophagus)) was “INTERMEDIATE” and the ACTIVITY_AREA (KYSE-410 cells) was 61.52. For the same compound, the AMAX (KYSE-410 cells) was -56.07, the RESPONSE (KYSE-410 cells) was “INTERMEDIATE” and the ACTIVITY_AREA (KYSE-450 (oesophagus)) was 26.55. For the same compound, the AMAX (KYSE-450 (oesophagus)) was -37.05, the RESPONSE (KYSE-450 (oesophagus)) was “INTERMEDIATE” and the ACTIVITY_AREA (KYSE-450 cells) was 26.55. For the same compound, the AMAX (KYSE-450 cells) was -37.05, the RESPONSE (KYSE-450 cells) was “INTERMEDIATE” and the ACTIVITY_AREA (KYSE-510 (oesophagus)) was 54.71. The AMAX (KYSE-510 (oesophagus)) was -38.87, the RESPONSE (KYSE-510 (oesophagus)) was “INTERMEDIATE” and the ACTIVITY_AREA (KYSE-520 (oesophagus)) was 48.13. For the same compound, the AMAX (KYSE-520 (oesophagus)) was -67.28, the RESPONSE (KYSE-520 (oesophagus)) was “INTERMEDIATE” and the ACTIVITY_AREA (Ki-JK) was 33.09. For the same compound, the AMAX (Ki-JK) was -86.88 and the RESPONSE (Ki-JK) was “INTERMEDIATE”.
